# Assay results as given in US8236762B2 (IPSEN Pharma S.A.S., priority 2006, dated 2012).
# HELM strings list residues between dots; [ac] is acetyl, [am] amide, other brackets name non-standard units.
# Assay: general procedure: Fmoc solid-phase peptide synthesis; Rink Amide MBHA resin, 0.72 mmol/g; HBTU/HOBT/DIEA; HATU/HOAT/DIEA for Aepa; DIC/HOBT for Doc; DIC/HOAt/DIEA for cyt
# Conditions: whole synthesis; for final HPLC purity: scale of the general procedure 1 mmol
Substance,final HPLC purity [%],also measured
Camptothecin-rvD-Asp-Suc-(Doc)4-Aepa-D-Phe-c(Cys-Tyr-D-Trp-Lys-Abu-Cys)-Thr-NH2,,isolated yield (scale 0.8 mmol): 13.9%
Camptothecin-rvD-Dap(Z)-Suc-(Doc)4-Aepa-D-Phe-c(Cys-Tyr-D-Trp-Lys-Abu-Cys)-Thr-NH2,99,
Camptothecin-rvD-Glu-Suc-(Doc)4-Aepa-D-Phe-c(Cys-Tyr-D-Trp-Lys-Abu-Cys)-Thr-NH2 and Camptothecin-rvGlu-Suc-(Doc)4-Aepa-D-Phe-c(Cys-Tyr-D-Trp-Lys-Abu-Cys)-Thr-NH2,94.2,
Camptothecin-rvD-Val-Suc-(Doc)4-Aepa-D-Phe-c(Cys-Tyr-D-Trp-Lys-Abu-Cys)-Thr-NH2,99.9,
Camptothecin-rvDAsp-Suc-(Peg3)3-Aepa-DPhe-c(Cys-Tyr-DTrp-Lys-Abu-Cys)-Thr-NH2,99.9,
Camptothecin-rvDAsp-Suc-Peg11-Aepa-DPhe-c(Cys-Tyr-DTrp-Lys-Abu-Cys)-Thr-NH2,99.9,
"PEPTIDE1{[CPT-Glut].[Doc].[Doc].[Doc].[Doc].[Aepa].[dF].C.Y.[dW].K.[Abu].C.T.[am]}$PEPTIDE1,PEPTIDE1,8:R3-13:R3$$$V2.0",96.8,
"PEPTIDE1{[CPT-rvAbu-Suc].[Doc].[Doc].[Doc].[Doc].[Aepa].[dF].C.Y.[dW].K.[Abu].C.T.[am]}$PEPTIDE1,PEPTIDE1,8:R3-13:R3$$$V2.0",99,
"PEPTIDE1{[CPT-rvAhp-Suc].[Doc].[Doc].[Doc].[Doc].[Aepa].[dF].C.Y.[dW].K.[Abu].C.T.[am]}$PEPTIDE1,PEPTIDE1,8:R3-13:R3$$$V2.0",99,
"PEPTIDE1{[CPT-rvAla-Suc].[Doc].[Doc].[Doc].[Doc].[Aepa].[dF].C.Y.[dW].K.[Abu].C.T.[am]}$PEPTIDE1,PEPTIDE1,8:R3-13:R3$$$V2.0",99.9,
"PEPTIDE1{[CPT-rvAnc-Suc].[Doc].[Doc].[Doc].[Doc].[Aepa].[dF].C.Y.[dW].K.[Abu].C.T.[am]}$PEPTIDE1,PEPTIDE1,8:R3-13:R3$$$V2.0",99,
"PEPTIDE1{[CPT-rvApn-Suc].[Doc].[Doc].[Doc].[Doc].[Aepa].[dF].C.Y.[dW].K.[Abu].C.T.[am]}$PEPTIDE1,PEPTIDE1,8:R3-13:R3$$$V2.0",99,
"PEPTIDE1{[CPT-rvArg-Suc].[Doc].[Doc].[Doc].[Doc].[Aepa].[dF].C.Y.[dW].K.[Abu].C.T.[am]}$PEPTIDE1,PEPTIDE1,8:R3-13:R3$$$V2.0",92.3,
"PEPTIDE1{[CPT-rvCha-Suc].[Doc].[Doc].[Doc].[Doc].[Aepa].[dF].C.Y.[dW].K.[Abu].C.T.[am]}$PEPTIDE1,PEPTIDE1,8:R3-13:R3$$$V2.0",99,isolated yield (scale 0.6 mmol): 99.9%
"PEPTIDE1{[CPT-rvD-Glu-Suc].[Doc].[Doc].[Doc].[Doc].[Aepa].[dF].C.Y.[dW].K.[Abu].C.T.[am]}$PEPTIDE1,PEPTIDE1,8:R3-13:R3$$$V2.0",100,
"PEPTIDE1{[CPT-rvDap(Z)-Suc].[Doc].[Doc].[Doc].[Doc].[Aepa].[dF].C.Y.[dW].K.[Abu].C.T.[am]}$PEPTIDE1,PEPTIDE1,8:R3-13:R3$$$V2.0",99,

Substance,final HPLC purity [%],also measured
"PEPTIDE1{[CPT-rvGly-Glut].[Doc].[Doc].[Doc].[Doc].K.[dY].[dY].C.F.F.[dW].K.T.C.[am]}$PEPTIDE1,PEPTIDE1,9:R3-15:R3$$$V2.0",99,
"PEPTIDE1{[CPT-rvGly-Glut].[Doc].[Doc].[Doc].[Doc].K.[dY].[dY].C.[3-(I)Tyr].[dW].K.[Abu].C.T.[am]}$PEPTIDE1,PEPTIDE1,9:R3-14:R3$$$V2.0",99,
"PEPTIDE1{[CPT-rvGly-Glut].[Doc].[Doc].[Doc].[Doc].[Doc].[Doc].K.[dY].[dY].C.[3-(I)Tyr].[dW].K.[Abu].C.T.[am]}$PEPTIDE1,PEPTIDE1,11:R3-16:R3$$$V2.0",99,
PEPTIDE1{[CPT-rvGly-Suc].[Doc].[Doc].[Doc].[Doc].K.[dS].[dY].Q.W.A.V.[bAla].H.L.[Nle].[am]}$$$$V2.0,99.9,
PEPTIDE1{[CPT-rvGly-Suc].[Doc].[Doc].[Doc].[Doc].R.[dA].[dY].Q.W.A.V.[bAla].H.L.[Nle].[am]}$$$$V2.0,97.6,
PEPTIDE1{[CPT-rvGly-Suc].[Doc].[Doc].[Doc].[Doc].[Aepa].L.[Gaba].Q.W.A.V.[bAla].H.L.[Nle].[am]}$$$$V2.0,99,
PEPTIDE1{[CPT-rvGly-Suc].[Doc].[Doc].[Doc].[Doc].[Aepa].[Ahx].Q.W.A.V.[bAla].H.L.[Nle].[am]}$$$$V2.0,99,
PEPTIDE1{[CPT-rvGly-Suc].[Doc].[Doc].[Doc].[Doc].[Aepa].[Apn].N.Q.W.A.V.[bAla].H.L.[Nle].[am]}$$$$V2.0,99,
PEPTIDE1{[CPT-rvGly-Suc].[Doc].[Doc].[Doc].[Doc].[Aepa].[Gaba].N.Q.W.A.V.[bAla].H.L.[Nle].[am]}$$$$V2.0,99,
PEPTIDE1{[CPT-rvGly-Suc].[Doc].[Doc].[Doc].[Doc].[Aepa].[Gaba].[dS].[dY].Q.W.A.V.[bAla].H.L.[Nle].[am]}$$$$V2.0,99.9,
PEPTIDE1{[CPT-rvGly-Suc].[Doc].[Doc].[Doc].[Doc].[Aepa].[Nle].Q.W.A.V.[bAla].H.L.[Nle].[am]}$$$$V2.0,99,
PEPTIDE1{[CPT-rvGly-Suc].[Doc].[Doc].[Doc].[Doc].[Aepa].[dS].[dY].Q.W.A.V.[bAla].H.L.[Nle].[am]}$$$$V2.0,99.9,
"PEPTIDE1{[CPT-rvPhe-Suc].[Doc].[Doc].[Doc].[Doc].[Aepa].[dF].C.Y.[dW].K.[Abu].C.T.[am]}$PEPTIDE1,PEPTIDE1,8:R3-13:R3$$$V2.0",99,
"PEPTIDE1{[CPT-rvVal-Suc].[Doc].[Doc].[Doc].[Doc].[Aepa].[dF].C.Y.[dW].K.[Abu].C.T.[am]}$PEPTIDE1,PEPTIDE1,8:R3-13:R3$$$V2.0",99,
"PEPTIDE1{[SN38-rvGly-Suc].[Doc].[Doc].[Doc].[Doc].[Aepa].[dF].C.Y.[dW].K.[Abu].C.T.[am]}$PEPTIDE1,PEPTIDE1,8:R3-13:R3$$$V2.0",98.6,
